Data reported in patent US7993869.
No constants are given. Whether binding was seen depends on the method and setting. Binding can be weak; no strength is given.

Molecular target: α-gliadin (wheat)
Experiment: Western blot

B1: anti-Glia-α2/9 mAb (antibody, IgG1, V domains shown)
VH: EVKLVESGGGLVKPGGSLKLSCAASGFTFSTYAMSWVRQTPEKRLEWVASISSGGSTTYYPDSVKGRFTISRDNARNILYLQMSSLRSEDTAMYYCARVPTYKDYAMDYWGQGTSVTVSS
VL: DVVMTQTPLSLPVSLGDQASISCRSSQSLVHSNGNTYLHWYLQKPGQSPKLLIYKVSNRFSGVPDRFSGSGSGTDFTLKISRVEAEDLGVYFCSQSTHVLTFGAGTKLELKR
binding: binds
